PubChem BioAssay AID1508597 – Cure First – 2020
Aim: 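Knock-downs altering ovarian cancer cell survival with or without PARP inhibitor rucaparib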 (primary screen). Cell system: human ovarian carcinoma lines grown from tumours: OCI-P5x (papillary serous) and OCI-C5x (clear cell). Reagent: siRNA pool against human genes, 1.25 pmol siRNA per well. Timing: 72 h or 96 h, depending on the cell culture. Treatment: rucaparib 20 µM (about IC30) or vehicle, present until read-out. Rucaparib or vehicle: Rucaparib. Cell line: OCI-C5x (clear cell). Read-out: 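Luminescent ATP-based viability assay read 72 or 96 h after transfection, depending on culture, given as normalised percent viability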. Reading the numbers: viability, normalised: higher = more viable cells remaining. Rule for the call: 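Active when normalised viability falls below 80 percent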. Meaning of the calls: active = viability under 80%; inactive = viability 80% or more.
Shown is an unselected part of the about 2,100 reagents, under one of the conditions tested. 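Calls flag viability under 80% in either arm, not effects specific to rucaparib; the reference for percent is not stated.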 Not stated in the record: the 100% reference.

PAF1, technical replicate 1 gave viability, normalised (%) = 48.8; active.
For PAF1, technical replicate 2 the deposit lists viability, normalised (%) = 59.2; active.
PAF1, technical replicate 3 scored viability, normalised (%) = 53.2; active.
TSSK6, technical replicate 1 scored viability, normalised (%) = 64.1; active.
For TSSK6, technical replicate 2, the entry reads viability, normalised (%) = 88.6; inactive.
For TSSK6, technical replicate 3, the values are viability, normalised (%) = 68.1; active.
For PDK2, technical replicate 1 the deposit lists viability, normalised (%) = 46.9; active.
PDK2, technical replicate 2 scored viability, normalised (%) = 50.9; active.
For PDK2, technical replicate 3, the values are viability, normalised (%) = 47.3; active.

Laid out differently: 3 of the entries above.
gene knocked down | technical replicate | viability, normalised (%) | outcome
PDK2 | 1 | 46.9 | active
PDK2 | 2 | 50.9 | active
PDK2 | 3 | 47.3 | active

More entries follow:
HIF1A, technical replicate 1 showed viability, normalised (%) = 50.3; active.
With HIF1A, technical replicate 2, the values are viability, normalised (%) = 45.5; active.
HIF1A, technical replicate 3 showed viability, normalised (%) = 55.3; active.
INO80C, technical replicate 1 gave viability, normalised (%) = 55.6; active.
For INO80C, technical replicate 2, the values are viability, normalised (%) = 50.9; active.
With INO80C, technical replicate 3, the values are viability, normalised (%) = 46.3; active.
RAB38, technical replicate 1 scored viability, normalised (%) = 66.8; active.
RAB38, technical replicate 2 showed viability, normalised (%) = 82.5; inactive.
For RAB38, technical replicate 3, the values are viability, normalised (%) = 69.3; active.
For SGK2, technical replicate 1, the entry reads viability, normalised (%) = 60.2; active.
With SGK2, technical replicate 2 the deposit lists viability, normalised (%) = 66.6; active.
With SGK2, technical replicate 3, the entry reads viability, normalised (%) = 49.9; active.
